Assay results from PMC6928011.
Results are given in words; binding and its absence hold for the method and conditions named. In cells and extracts the contact can be indirect. Some results given as binding are weak or reduced against the parent protein; the word gives no strength. Tags and fused reporters may be left off the sequences shown.

Target: T1, TagRFP657-MamK translational fusion protein (not stated (expressed in Magnetospirillum gryphiswaldense MSR-1)) (UniProt Q6NE59)
T1 sequence: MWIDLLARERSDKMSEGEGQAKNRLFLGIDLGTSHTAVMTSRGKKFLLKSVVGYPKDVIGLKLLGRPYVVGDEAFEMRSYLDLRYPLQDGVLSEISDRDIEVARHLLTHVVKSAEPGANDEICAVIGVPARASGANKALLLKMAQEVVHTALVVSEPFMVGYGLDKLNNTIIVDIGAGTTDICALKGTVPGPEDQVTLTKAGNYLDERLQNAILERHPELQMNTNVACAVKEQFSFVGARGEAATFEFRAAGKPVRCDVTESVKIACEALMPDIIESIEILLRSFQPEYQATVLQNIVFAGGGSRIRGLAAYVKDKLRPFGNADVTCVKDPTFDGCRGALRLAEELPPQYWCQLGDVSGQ
Experiment: FRET or BRET; FLIM-FRET (TCSPC) in living MSR-1 cells embedded in 1% low-melt agarose, BR buffer; donor phiYFP on MamJ, acceptor TagRFP657 on MamK; measured before and after application of a magnetic torque (50 mT, 10 rotations of two magnets up to 270°)

- binding: binds
B1: MamJ-phiYFP translational fusion protein (protein, UniProt V6F519 1-466)
chain: MAKNRRDRGTDLPGDGDQKISTGPEIVSVTVHPSPNLAAAAKPVQGDIWASLLESSPWSANQGGLVETAQPPSAPIRSQDPVPVADLVNRWSQPIWRTAPLAGNAESSEEGVVAPSLTQSDSVLAVSDLVIDVQPETDAEVEVSIEPEPALVEPVIEIEAEAAEVEPEPAPVADLVNRWAQPIWRTAPLAGNAESSEEGVVAPSLTQSDSVLAVSDLVIDVQPEANAEVEVSIEPEPALVEPVIEIEAEAAEVEPEPAPVEPVIEIEAEAAEVEPEPAPVEPVIEIEAEAAEVEPEPAPVEPAIEIEAIRVELEPVLIDEVVELVTEFEYSQAESVASADLIANPAPAESSRLAELLDEAAAIAAPAVAVAVEATRQPNKITASVKKRAPVQEVPVEDLLGGIFGVAGSAVRGVFTIGGGFVDGVVKGGRLVGSNVVAGTRRLAQTIEVSCGSCSSPKCDAEDKNK
